Primary screen of a compound library

Amino acid sequences for entries named in this document (tags omitted). Residues count along the entry.
UniProt I6X8D2, whole entry: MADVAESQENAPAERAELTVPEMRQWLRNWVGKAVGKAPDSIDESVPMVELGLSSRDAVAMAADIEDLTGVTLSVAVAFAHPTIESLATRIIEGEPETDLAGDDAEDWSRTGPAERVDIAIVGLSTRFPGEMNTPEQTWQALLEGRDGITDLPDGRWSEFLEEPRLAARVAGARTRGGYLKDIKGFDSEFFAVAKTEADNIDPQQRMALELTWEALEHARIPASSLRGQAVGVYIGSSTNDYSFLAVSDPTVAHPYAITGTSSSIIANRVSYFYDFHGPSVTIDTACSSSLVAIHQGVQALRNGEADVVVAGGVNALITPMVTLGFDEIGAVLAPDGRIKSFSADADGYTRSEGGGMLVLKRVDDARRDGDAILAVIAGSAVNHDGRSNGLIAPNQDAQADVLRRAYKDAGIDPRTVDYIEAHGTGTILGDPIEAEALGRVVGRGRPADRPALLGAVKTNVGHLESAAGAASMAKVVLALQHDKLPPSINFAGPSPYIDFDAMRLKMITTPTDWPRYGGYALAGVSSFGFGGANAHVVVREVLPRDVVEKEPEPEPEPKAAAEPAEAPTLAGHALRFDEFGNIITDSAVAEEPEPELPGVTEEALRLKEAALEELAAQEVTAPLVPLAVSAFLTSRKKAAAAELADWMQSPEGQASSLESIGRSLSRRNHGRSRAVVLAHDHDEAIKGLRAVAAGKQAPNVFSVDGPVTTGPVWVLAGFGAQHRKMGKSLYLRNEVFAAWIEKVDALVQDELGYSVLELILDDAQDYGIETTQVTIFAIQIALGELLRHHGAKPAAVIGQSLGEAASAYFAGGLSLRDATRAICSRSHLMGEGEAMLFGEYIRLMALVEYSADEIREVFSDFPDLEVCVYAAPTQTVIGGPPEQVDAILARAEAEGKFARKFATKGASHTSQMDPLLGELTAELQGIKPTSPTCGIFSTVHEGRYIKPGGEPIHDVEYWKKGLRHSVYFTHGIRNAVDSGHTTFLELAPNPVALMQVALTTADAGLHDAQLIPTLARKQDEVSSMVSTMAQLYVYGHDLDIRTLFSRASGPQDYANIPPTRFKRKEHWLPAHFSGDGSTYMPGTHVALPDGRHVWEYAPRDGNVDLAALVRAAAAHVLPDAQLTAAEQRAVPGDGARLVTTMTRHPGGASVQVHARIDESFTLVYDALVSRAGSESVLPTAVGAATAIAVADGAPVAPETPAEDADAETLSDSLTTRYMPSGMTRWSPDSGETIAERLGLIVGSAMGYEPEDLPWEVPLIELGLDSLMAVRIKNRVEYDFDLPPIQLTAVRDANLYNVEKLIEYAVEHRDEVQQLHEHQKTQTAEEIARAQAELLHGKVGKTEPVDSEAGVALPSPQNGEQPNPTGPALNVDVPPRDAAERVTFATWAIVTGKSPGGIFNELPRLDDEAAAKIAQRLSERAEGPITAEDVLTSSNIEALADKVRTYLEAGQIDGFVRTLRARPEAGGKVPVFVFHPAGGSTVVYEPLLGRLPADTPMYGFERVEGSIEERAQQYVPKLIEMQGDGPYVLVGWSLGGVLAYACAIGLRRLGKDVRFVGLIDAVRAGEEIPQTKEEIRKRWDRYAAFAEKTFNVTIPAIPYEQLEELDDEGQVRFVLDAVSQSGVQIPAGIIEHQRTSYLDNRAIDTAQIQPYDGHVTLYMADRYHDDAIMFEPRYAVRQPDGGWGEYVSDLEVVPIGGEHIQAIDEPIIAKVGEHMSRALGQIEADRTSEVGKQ
UniProt P9WNZ1, whole entry: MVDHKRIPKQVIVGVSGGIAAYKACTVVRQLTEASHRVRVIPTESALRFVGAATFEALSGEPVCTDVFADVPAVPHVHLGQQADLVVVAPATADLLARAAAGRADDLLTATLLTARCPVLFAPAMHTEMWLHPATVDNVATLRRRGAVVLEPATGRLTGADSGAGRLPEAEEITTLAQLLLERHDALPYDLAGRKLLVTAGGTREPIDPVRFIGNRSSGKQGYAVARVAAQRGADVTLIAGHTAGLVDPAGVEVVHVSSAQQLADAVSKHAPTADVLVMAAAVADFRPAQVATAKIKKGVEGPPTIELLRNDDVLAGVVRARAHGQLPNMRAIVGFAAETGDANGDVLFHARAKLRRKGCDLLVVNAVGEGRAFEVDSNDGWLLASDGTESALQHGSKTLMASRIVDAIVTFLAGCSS
UniProt P9WFT3, whole entry: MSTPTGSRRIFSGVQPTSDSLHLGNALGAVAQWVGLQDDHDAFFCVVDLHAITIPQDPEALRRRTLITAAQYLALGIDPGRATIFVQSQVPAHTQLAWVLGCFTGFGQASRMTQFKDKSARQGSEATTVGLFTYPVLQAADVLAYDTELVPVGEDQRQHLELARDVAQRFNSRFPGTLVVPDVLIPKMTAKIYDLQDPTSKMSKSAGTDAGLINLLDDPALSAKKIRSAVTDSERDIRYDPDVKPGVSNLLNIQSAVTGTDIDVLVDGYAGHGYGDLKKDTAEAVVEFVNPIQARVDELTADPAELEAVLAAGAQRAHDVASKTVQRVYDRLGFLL
UniProt A4I591, 1-473: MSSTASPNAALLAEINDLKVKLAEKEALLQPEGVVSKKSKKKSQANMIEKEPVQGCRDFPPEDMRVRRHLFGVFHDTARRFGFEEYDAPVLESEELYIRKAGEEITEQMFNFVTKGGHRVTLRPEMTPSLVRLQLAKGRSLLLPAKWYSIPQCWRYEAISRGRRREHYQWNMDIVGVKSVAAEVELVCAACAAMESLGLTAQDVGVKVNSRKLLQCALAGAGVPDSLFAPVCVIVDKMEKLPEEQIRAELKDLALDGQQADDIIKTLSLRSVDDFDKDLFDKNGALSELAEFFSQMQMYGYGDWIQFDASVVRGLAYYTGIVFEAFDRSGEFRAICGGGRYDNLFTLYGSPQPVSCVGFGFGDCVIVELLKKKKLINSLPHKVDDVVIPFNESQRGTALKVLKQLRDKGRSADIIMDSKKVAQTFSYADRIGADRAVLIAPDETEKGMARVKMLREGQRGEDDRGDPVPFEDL
UniProt Q4DA54, 1-478: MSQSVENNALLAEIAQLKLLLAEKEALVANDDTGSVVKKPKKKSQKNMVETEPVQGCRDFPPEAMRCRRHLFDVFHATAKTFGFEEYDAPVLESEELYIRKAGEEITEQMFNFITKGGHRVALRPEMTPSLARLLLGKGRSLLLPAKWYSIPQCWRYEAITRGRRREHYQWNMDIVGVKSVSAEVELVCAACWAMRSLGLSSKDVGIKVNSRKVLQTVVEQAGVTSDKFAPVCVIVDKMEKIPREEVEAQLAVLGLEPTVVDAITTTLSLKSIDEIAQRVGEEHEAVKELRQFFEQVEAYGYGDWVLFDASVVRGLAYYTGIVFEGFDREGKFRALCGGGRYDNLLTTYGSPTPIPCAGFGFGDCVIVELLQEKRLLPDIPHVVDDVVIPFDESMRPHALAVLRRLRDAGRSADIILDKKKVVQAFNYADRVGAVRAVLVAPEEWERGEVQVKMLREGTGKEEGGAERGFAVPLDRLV

Measurements from “University of Dundee, Small-Polar-MMV Screening Library” (2021), ChEMBL document CHEMBL3988442.

Values are the deposited “Percent Effect”, in %. How 0% and 100% were set is not recorded. Most values in the screen are low, and negative values occur. The compounds are a random part of those screened. Two or more numbers in one place are separate tests of the same structure; such repeats can differ widely. A dash means the value is not listed here; it may have been measured.

Pks13 thioesterase: 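Polyketide synthase Pks13, Mycobacterium tuberculosis (UniProt I6X8D2). Enzyme assay of the thioesterase domain of polyketide synthase 13; the read-out is not stated. Tested at 30 µM. Higher reads as stronger inhibition (inferred from which compounds were picked for retests). About 67,000 compounds were tested under these conditions; 0.46% (about 300) showed 50% or more at least once.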
Toxoplasma: 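Assay of Toxoplasma gondii numbers, read through their beta-galactosidase reporter with a colour substrate. Compounds at 10 µM. The record gives no direction; the compounds picked for IC50 retests had high values, so higher reads as fewer parasites. About 67,000 compounds were tested under these conditions; 0.38% (about 260) showed 50% or more at least once.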
CoaBC: 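Enzyme assay of CoaBC with a phosphate dye (Biomol Green) read at 650 nm. Target: Coenzyme A biosynthesis protein CoaBC, Mycobacterium tuberculosis (UniProt P9WNZ1). Concentration: 30 µM. Higher reads as stronger inhibition, judged from the few compounds that gave an IC50. Most strong results did not repeat in a second test. Of about 67,000 compounds tested this way, about 40 (0.06%) reached 50% or more in at least one test.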
MtTrpRS: 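Tryptophan-tRNA ligase, Mycobacterium tuberculosis (UniProt P9WFT3). Enzyme assay of tryptophanyl-tRNA synthetase; the read-out is not stated. Concentration: 10 µM. Higher most likely means stronger inhibition; the record gives no direction and few retests gave an IC50. Size under these conditions: about 65,000 compounds, about 64 of them at 50% or above in at least one test.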
LiHisRS: 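Histidine-tRNA ligase, Leishmania infantum (UniProt A4I591). Enzyme assay of histidyl-tRNA synthetase; the read-out is not stated. Compounds at 30 µM. The record gives no direction; compounds that gave an IC50 in retests scored well above the rest, so higher reads as stronger inhibition. The assay is labelled LdHisRS but filed under L. infantum. About 69,000 compounds were tested under these conditions; 0.6% (about 410) showed 50% or more at least once.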
TcHisRS: 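Enzyme assay of histidyl-tRNA synthetase; the read-out is not stated. Target: Histidine-tRNA ligase, Trypanosoma cruzi CL Brener (UniProt Q4DA54). Compounds at 30 µM. The record gives no direction; compounds that gave an IC50 in retests scored well above the rest, so higher reads as stronger inhibition. About 69,000 compounds were tested under these conditions; 0.045% (about 31) showed 50% or more at least once.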

compound | Pks13 thioesterase | Toxoplasma | CoaBC | MtTrpRS | LiHisRS | TcHisRS
OC[C@@H]1CN2CCN(c3ccccn3)C[C@@H]2[C@H]1c1ccccc1 | 12.66% | - | 2.822% | - | 6.186% | 2.312%
CCN1CCC(N2CCN(C)C3(CCC(=O)N(CCOC)CC3)C2)CC1 (stereo unspecified) | 4.337% | -37.16% | 13.2% | 2.254% | 11.48% | 10.4%
Cc1nc2c(c(C)c1CC(=O)NCc1ccco1)c(=O)[nH]n2C | -8.793% | -0.8259% | 0.5222% | -2.508% | 15.04% | 6.122%
O=C(O)C(F)(F)F.O=C(O)C(F)(F)F.[H][C@@]12COC[C@]1([H])[C@@H](OCc1csc(C)n1)CN2Cc1cccc(C)n1 | - | -29.59% | - | - | - | -
Cc1cnn(CCC(=O)N2CCCC(c3nc(C)no3)C2)c1 (stereo unspecified) | - | -5.227% | 1.068% | 1.33% | 23.81% | -3.759%
Cc1nc(C)n(CC2CCCN(c3ncnc4ccccc34)C2)n1 (stereo unspecified) | -6.301% | -8.256% | -2.857% | 3.644% | 17.54% | 5.444%
COc1cccc2c1OCC(Cc1cc(C(N)=O)ccn1)C2 (stereo unspecified) | 11.65% | 0.3159% | 5.144% | 5.356% | 34.94% | 11.44%
Cc1cccc(CN2C(=O)CCC23CCN(C(=O)c2ccco2)CC3)n1 | -4.522% | - | 2.353% | -4.975% | 13.76% | 4.327%
COc1ccc2c(c1)OCC(Cc1cnccc1N)C2 (stereo unspecified) | -13.46% | -11.59% | -22.68% | 1.2% | 33.33% | 5.291%
Cc1ccccc1CC1(CO)CCCN(c2ncncc2C(C)C)C1 (stereo unspecified) | -21.59% | 10.51% | 4.512% | 3.046% | 30.77% | 5.422%
Cn1cc(C[C@H]2[C@H](N3CCOCC3)CCN2C2CCOCC2)cn1.O=C(O)C(F)(F)F.O=C(O)C(F)(F)F | - | -7.083% | - | - | - | -
CC(O)c1cccc(-n2c(CCC(=O)O)nc3ccccc32)c1 (stereo unspecified) | -29.72% | 1.175% | 10.58% | -0.6717% | 40% | 2.041%
CNc1cnc(CC2COCCN(CCOc3ccccc3)C2)cn1 (stereo unspecified) | -3.572% | -2.494% | 1.699% | 3.735% | 8.571% | 5.747%
O=C(c1ccco1)N1CCCn2cnc(COCC3CC3)c2C1 | -15.04% | -2.277% | 1.36% | -7.657% | 11% | 7.143%
O=C(c1cnccn1)N1CCN(CC2CC2)c2ncccc2C1 | -2.993% | -1.246% | -5.013% | 0.4149% | 10.26% | 7.317%
CN(C)C(=O)N1CCN(C)c2ncccc2C1 | -31.82% | 0.3014% | 1.794% | -1.526% | 28.77% | 3.96%
Cc1ccc(CNc2ccc(N3CCC(CO)CC3)cn2)o1 | -1.243% | 1.479% | -4.545% | -4.932% | -2.667% | 5.978%
O=C(NCCNc1cnccn1)N1CCc2ccccc2C1 | -2.12% | 4.123% | 9.524% | -3.888% | 13.89% | 4.082%
COCCN1C(=O)CC(c2cccnc2)C12CCN(C)CC2 (stereo unspecified) | -4.792% | 6.391% | -1.238% | - | 0.9009% | 0%
CNC(=O)CN1CCC(CN(C)Cc2ccncc2Cl)CC1 | -10.82% | 15.33% | 4.463% | 0.2937% | 22.45% | 12%
Cc1n[nH]c(=O)c2c(NC(=O)CN3CCC(O)CC3)oc(C)c12 | 3.68% | -8.045% | -2.332% | -1.559% | 0% | 0%
O=C(O)C(F)(F)F.[H][C@@]12CCN(c3ncccn3)C[C@@]1([H])O[C@H](C(=O)NCCOC)C2 | - | 3.119% | - | - | - | -
Cc1ncc(CNC(=O)c2nn(C)c3c2CS(=O)(=O)CC3)s1 | -40.95% | 2.152% | 3.096% | -1.407% | 19.42% | 3.825%
CCN1CCc2[nH]nc(C(=O)N3CCCC3C)c2C1 (stereo unspecified) | -21.77% | - | -3.562% | 5.578% | 21.36% | 8.738%
Cc1cc(S(=O)(=O)N2CCCN3CCCC3C2)ccc1F (stereo unspecified) | -23.55% | -4.551% | -8.333% | -7.319% | 26.03% | 6.897%
COC(=O)C(O)C1CCN(CCc2ccc(C)cc2)CC1 (stereo unspecified) | 8.478% | -3.78% | 4.43% | 8.801% | 6.494% | -3.448%
Oc1cc(C2CCCN(Cc3cccs3)C2)nc(-c2ccccn2)n1 (stereo unspecified) | -13.59% | 33.79% | 11.86% | 1.632% | 9.79% | 4.52%
Cc1ccc(-c2nc(CC(=O)NCC3CCOC3)cs2)o1 (stereo unspecified) | -18.54% | 8.996% | 0.8065% | -5.717% | 21.05% | 9.497%
O=C1N(c2cncnc2)CCC12CCCN(Cc1ccccn1)C2 (stereo unspecified) | -5.196% | - | -19.09% | 3.728% | 12.26% | 4.184%
Cn1ccnc1CN1CCC2(CC1)CN(Cc1cccnc1)C(=O)CO2.O=C(O)C(F)(F)F.O=C(O)C(F)(F)F | - | -1.129% | - | - | - | -
Cc1nn(C)c2cn(C(C)C(=O)NCc3ccccn3)nc12 (stereo unspecified) | -28.68% | 4.916% | -0.4619% | 3.109% | 15.52% | 2.609%
CN(C)CCOCc1cncc2c1CCN(Cc1ccccn1)C2.O=C(O)C(F)(F)F.O=C(O)C(F)(F)F.O=C(O)C(F)(F)F | - | -26.9% | - | - | - | -
CCN1CC2(CCC1=O)CCN(CCOc1ccc(F)cc1)CC2 | -6.313% | 10.77% | 2.685% | 0.4078% | 14.94% | 4.124%
N#Cc1cc(F)c(NCCc2cccnc2)c(F)c1 | -11.24% | -3.973% | 3.421% | -5.493% | 12.82% | 9.551%
CN1CCN(c2ccc(F)cc2NC(=O)NCC[S+](C)[O-])CC1 (stereo unspecified) | -34.59% | -2.199% | 2.915% | -0.5376% | 8.861% | 4.741%
O=C(NC[C@H]1C[C@@H]2CCN1C[C@@H]2CN1CCCCC1)c1ccco1 | -12.33% | - | -5.96% | -2.352% | 17.57% | -1.087%
CC1c2ncc(CN3CCN(C)CC3)n2CCN1Cc1cnn(C)c1 (stereo unspecified) | -19.79% | - | -4.198% | 1.361% | 16.67% | 8.411%
COCCNc1cc(-c2ccccc2CCN)c2cc[nH]c2n1 | 18.49% | 1.109% | 3.576% | -2.402% | 4.839% | -7.018%
[H][C@@]12CN(C(=O)c3cccn3C)C[C@]1([H])C(=O)N(CC(C)C)C2 | - | 24.98% | - | - | - | -
[H][C@]12CN(Cc3ccccn3)CCN1C[C@@H](c1ccccc1)[C@@H]2C(=O)NC | - | -14.33% | - | - | - | -
O=C(C1CCCC1)N1C[C@@H]2CCN(c3cccnc3)C[C@@H]2C1 | -11.99% | - | 4.061% | -4.362% | 14.71% | 4.926%
CN(C)c1nccc(CNS(=O)(=O)c2cc(Cl)cc(Cl)c2)n1 | -0.09852% | -8.909% | -0.9662% | -4.909% | 7.071% | 9.677%
CCn1cnnc1C1CCN(C(=O)c2cc3c(s2)CCCC3)CC1 | 0.7197% | 11.71% | 2.551% | -7.733% | 12.73% | 7.602%
c1ccc(CCN2CCCC2c2cccc(Nc3nccs3)n2)cc1 (stereo unspecified) | -2.39% | 23.86% | 19.07% & 24.94% | 14.69% | 11.19% | 5.085%
COc1cccc(COCC(=O)N2CCN(S(C)(=O)=O)CC2)c1 | -7.374% | -10.25% | 7.224% | -4.708% | 17.86% | 7.101%
CC(C)c1nc(CNc2ccc(CNS(C)(=O)=O)cc2)cs1 | -16.67% | -7.646% | 3.586% | -1.624% | 0% | 7.368%
O=c1c(C(F)(F)F)cccn1Cc1nnc(-c2cccnc2)o1 | 5.298% | -22.92% | 3.325% | 0.7874% | 11.48% | 5.051%
CCCS(=O)(=O)N1CCCC(c2nc(-c3ccccc3)c[nH]2)C1 (stereo unspecified) | -29.21% | -4.528% | 2.355% | 0.2547% | 11.67% | 5.682%
O=C(O)C(F)(F)F.[H][C@]12CN(Cc3cccnc3)C(=O)[C@@]1([H])CN(S(=O)(=O)c1ccccc1)C2 | - | 9.414% | - | - | - | -
CC1CN(C)CCN1C(=O)Nc1nc(-c2cccn2C)cs1 (stereo unspecified) | 10.87% | 9.856% | 4.363% | 9.216% | 34.69% | 8.205%
O=C(NCc1cc2ccccc2s1)c1cc(CN2CCCC(O)C2)on1 (stereo unspecified) | 7.887% | -6.943% | -0.9926% | -5.901% | -8.511% | -1.734%
Cc1cc(C(=O)N2CCC(c3nnc(Cn4ccnc4)n3C)CC2)cs1 | 2.149% | -10.27% | 7.27% | 7.126% | 18.09% | 11.06%

Once more, the final 6:

| compound | Pks13 thioesterase | Toxoplasma | CoaBC | MtTrpRS | LiHisRS | TcHisRS |
|---|---|---|---|---|---|---|
| `O=c1c(C(F)(F)F)cccn1Cc1nnc(-c2cccnc2)o1` | 5.298% | -22.92% | 3.325% | 0.7874% | 11.48% | 5.051% |
| `CCCS(=O)(=O)N1CCCC(c2nc(-c3ccccc3)c[nH]2)C1` (stereo unspecified) | -29.21% | -4.528% | 2.355% | 0.2547% | 11.67% | 5.682% |
| `O=C(O)C(F)(F)F.[H][C@]12CN(Cc3cccnc3)C(=O)[C@@]1([H])CN(S(=O)(=O)c1ccccc1)C2` | - | 9.414% | - | - | - | - |
| `CC1CN(C)CCN1C(=O)Nc1nc(-c2cccn2C)cs1` (stereo unspecified) | 10.87% | 9.856% | 4.363% | 9.216% | 34.69% | 8.205% |
| `O=C(NCc1cc2ccccc2s1)c1cc(CN2CCCC(O)C2)on1` (stereo unspecified) | 7.887% | -6.943% | -0.9926% | -5.901% | -8.511% | -1.734% |
| `Cc1cc(C(=O)N2CCC(c3nnc(Cn4ccnc4)n3C)CC2)cs1` | 2.149% | -10.27% | 7.27% | 7.126% | 18.09% | 11.06% |